# Literature values as cited in patent US11666584B2, “Steroidal hormones for the treatment and prevention of wave burst arrhythmia” (ASSISTANCE PUBLIQUE—HOPITAUX DE PARIS, priority 2016, dated 2023).
# At least one compound was matched to its structure with a doubt left.
# System: transgenic rabbits with a long QT interval
# Settings: cited from earlier work
smiles,measurement,value
C[C@]12CC[C@@H]3c4ccc(O)cc4CC[C@H]3[C@@H]1CC[C@@H]2O [estradiol],effect on sudden death,promotes sudden death
